Literature values as cited in patent publication US20200316021A1, “Dosing Regimen of Siponimod” (NOVARTIS AG, priority 2017, published 2020).
For at least one compound, name, drawing or mass did not settle the structure.

Details: 0.5 mg per oral 3 times over 72 hours, 11 patients vs 11 controls, AIS; cited from earlier work

Question: With `CCCCCCCCc1ccc(CCC(N)(CO)CO)cc1` [fingolimod] as the compound, how does the “enlargement of infarct size measured by diffusion-weighted imaging (DWI)” value read?
Answer: reduced enlargement of infarct size

Question: What about the “neurological function measured by mBI and mRS scores” value of the same compound?
Answer: significantly improved neurological function
